Experimental data taken from US20220169708A1 (University of California, published 2022).
No constants are given. Whether binding was seen depends on the method and setting. Some entries that bind do so weakly or less than the wild type.

B1: VHH CLONE 213 (VHH)
VHH: EVQLVESVGGLVQPGGSLRLSCVASGNIGDIYTMGWYRQAPGKQRELVATVGDGGLTNFVDSVKGRFTISRDKSKGTVSLEMNSLKPEDTAVYYCNADVRIGPTGLRVYWGQGTQVTVSS
notes: The entry includes the C-terminal 6xHis and HA tags
B2: VHH CLONE 103 (VHH)
VHH: EVQLMESAGGLVRPGGSLRLSCVASGSIGDIYSMGWYRQAPGKQRELVATVGAGGLTDYGDSVLGRFTISRDKTKGTVSLEMNSLKPEDTAVYYCNADVSIGPTGLRVYWGQGTQVTVSS
notes: as for B1
B3: VHH CLONE 220 (VHH)
VHH: EVQLVESGGGLVQPGGSLRLSCVASGNIGNIYTMGWYRQAPGKQRELVAAVGAGELTNYVDSVKGRFTISRDKSKGTVSLEMNSLKPEDTAVYYCNADVSIGPTGLRVYWGQGTQVTVSS
notes: The entry includes the C-terminal 6xHis and HA tags; also called nanobody 220
B4: VHH CLONE 302 (VHH)
VHH: QVKLQESGGGLVQPGGSLRLSCVASGNIGDIYTMGWYRQAPGKQRELVATVGDGGLTNFVDSVKGRFTISRDKSKGTVSLEMNSLKPEDTAVYYCNADVRIGPTGLRVYWGQGTQVTVSS
notes: as for B1
B5: VHH CLONE 108 (VHH)
VHH: EVQLVESGGGLVQPGGSLRLSCEATGNFDDRGIGWFRQAPGKEREGIACITTRGRTHYAESVEGRFTISTDIANNAVYLQMNSLKPEDTAVYYCAKAIRLTTDRTQCVAFPGVSWGRGTQVTVSS
notes: as for B1
B6: VHH CLONE 116 (VHH)
VHH: EVQLVESGGGLVQPGGSLRLSCTASGSILKIYTMDWYRQAPGKQRDLVATVSSRGDTDYTDSVKGRFTISRDDAKNTAYLQMSSLKPEDTAVYYCNFYIQSRTAPFNDYWGQGTQVTVSS
notes: as for B1
B7: VHH CLONE 205 (VHH)
VHH: DVQLQASGGGLVQPGGSLRLSCAATGSTDRIAFMGWYRQAPGKLRELVAGITSDGRTNYADDVDVSGRFTISRDSAKNMVYLQMNSLKPEDTAVYYCNADITLAMGGLRVYWGQGTQVTVSS
notes: as for B1
B8: VHH CLONE 320 (VHH)
VHH: DVQLQASGGGLVQPGGSLRLSCATSTSVFSITTLGWYRQAPGKQRELVASMKRGGDTNYADSVKGRFTISRDNARNTVFLQMNNLTTEDTAVYYCNAAILAYTGAVTNYWGQGTQVTVSS
notes: The entry includes the C-terminal 6xHis and HA tags; also called nanobody 320

biological target: cystic fibrosis transmembrane conductance regulator (CFTR) inhibitory factor (Cif) (Pseudomonas aeruginosa); experiment: sandwich ELISA, pAb capture, VHH detection

Binder | binding
B1 | binds
B2 | binds
B3 | binds
B4 | binds
B5 | binds
B6 | binds
B7 | binds
B8 | binds
